Source: patent US11666656B2, “Polymeric conjugates and uses thereof” (Ramot at Tel-Aviv University Ltd., priority 2016, dated 2023)
For at least one compound, name, drawing or mass did not settle the structure.

Assays:
[1] = test system: 131/4-5B1 human melanoma cells; test: Wound healing (migration) assay; assay type: cell-based; conditions: 50 nM free selumetinib or equivalent dose, with or without serum, 96 hours
[2] = test system: metastatic melanoma and BRAF mutation; conditions: first-line; cited from earlier work

Row | SMILES | inhibitory effect on cells migration [1] | patients alive after 6 months [2] | response rate [2]
1 | Cn1cnc2c(F)c(Nc3ccc(Br)cc3Cl)c(C(=O)NOCCO)cc21 [SLM, Selumetinib] | same inhibitory effect |  | 
2 | CN(C)/N=N/c1[nH]cnc1C(N)=O [dacarbazine] |  | 64% | 5.5%
